Data: PubChem BioAssay AID504467 (National Center for Advancing Translational Sciences (NCATS), 2011)
The campaign covered roughly 330,000 compounds. About 7,700 (2.3%) were called active. Inconclusive means that the source gave no clear call. Such entries were picked first, then a sample of the others. Calls come from the whole dose curve; as a rule, active = well fitted inhibition curve with a large enough effect; inconclusive = small, poorly fitted or top-dose-only effect, or effect the other way; inactive = flat fitted curve, though single readings scatter. A potency beside an inconclusive call is a rough fit, not a confirmed value.

assay: qHTS screen for small molecules that inhibit ELG1-dependent DNA repair in human embryonic kidney (HEK293T) cells expressing luciferase-tagged ELG1; settings: HEK293T ELG1-luciferase reporter, luminescence, 16 h, DNA damage induced by 5-fluorouridine; activity change, negative = inhibition: at 46.1 µM (top of the series); note: nearly all actives have a fitted effect of over 55% in size
Outline: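 DMSO vehicle served as the neutral condition. Each well held 2,000 cells given 5-fluorouridine plus compound; after 16 hr at 37 °C/5% CO2, ONE-Glo was added and luciferase measured 30 min later.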
% is set by controls: 0 for no effect and ±100 for the full control effect; potency is the fitted concentration of half-maximal effect.

Compound	Potency	activity change, negative = inhibition
CCN(CC)C(=O)c1ccc(-c2nnc(Nc3cccc(O)c3)c3ccccc23)cc1	inconclusive: 0.631 µM [inhibitor, partial curve, poor fit]	
O=C(COC(=O)c1c(F)cccc1Cl)NC(=O)Nc1ccc2c(c1)OCCO2	inconclusive: 10 µM [activator, partial curve]	
CC(=O)Nc1nc2ccc(S(=O)(=O)N3CCCCC3)cc2s1		inactive: -2.6%
CCOC(=O)c1sc(C)c2c1NC(c1ccc(N(C)C)cc1)NC2=O (stereo unspecified)	inconclusive: 20.6 µM [inhibitor, single point]	
CC[C@@H](C)[C@H](NC(=O)OCc1ccccc1)c1nnc([C@@H](NC(=O)OCc2ccccc2)[C@@H](C)CC)o1		inactive: -7.2%
CCN1CCCC1CNC(=O)c1cc(COc2ccc(C)c(C)c2)on1 (stereo unspecified)	inconclusive: 20.6 µM [activator, partial curve]	
S=C(Nc1ccccc1)Nc1nccs1	inconclusive: 20.6 µM [activator, partial curve]	
O=C(Nc1cccc2cccnc12)c1cccc2ccccc12	inconclusive: 18.4 µM [activator, single point]	
CCCn1c(CN2CCN(C(=O)OCC)CC2)nc2c1c(=O)n(C)c(=O)n2C		inactive: 5.63%
COCCNC(=O)COc1ccc(Br)cc1Cl	inconclusive: 16.4 µM [activator, partial curve, poor fit]	
CCSC1=C(C#N)C(c2ccc(C)o2)CC(=O)N1 (stereo unspecified)		inactive: 24%
CSCCC(NS(=O)(=O)c1ccc2c(c1)OCCO2)C(=O)N(C)Cc1ccccc1F (stereo unspecified)	active: 16.4 µM	
CCCCNC(=O)NNC(=O)COc1cc(C)cc(C)c1		inactive: -6.11%
C[n+]1cccc2cccc([O-])c21	inconclusive: 16.4 µM [inhibitor, partial curve, poor fit]	
Cc1cc(C(=O)N2CCN(S(C)(=O)=O)CC2)sc1-c1ccccc1		inactive: 7.44%
COc1ccc(C(=O)N(C)Cc2ccccc2)cc1Br		inactive: 15.9%
CCCc1c(O)nc(SC2CC(=O)N(c3ccc(OC)cc3)C2=O)[nH]c1=O (stereo unspecified)		inactive: 5.53%
COc1cc(OC)cc(C(=O)NNC(=O)CCC(=O)c2cccs2)c1		inactive: 4.88%
Cc1nc2ccccc2c(=O)n1/N=C/c1cc(Br)ccc1O	inconclusive: 25.9 µM [inhibitor, single point]	
c1cncc(-c2noc(C34CC5CC(CC(C5)C3)C4)n2)c1	inconclusive: 11.2 µM [activator, partial curve, poor fit]	
CC1Oc2ccccc2N(CC(=O)Nc2ccccc2F)C1=O (stereo unspecified)	inconclusive: 0.517 µM [inhibitor, partial curve, poor fit]	
CCn1c(Cn2nnc(-c3ccccc3)n2)nnc1SCc1ccc(Cl)c(Cl)c1	inconclusive: 23.1 µM [inhibitor, single point]	
Cc1ccc(CCNC(=O)c2nc(CS(=O)(=O)c3ccc(Cl)cc3)no2)cc1		inactive: -5.34%
Oc1ccccc1/C=N/Nc1nc2ccccc2o1	inconclusive: 20.6 µM [activator, partial curve]	

As entered above.
For Potency, CCN1CCCC1CNC(=O)c1cc(COc2ccc(C)c(C)c2)on1 (stereo unspecified) shows inconclusive: 20.6 µM [activator, partial curve]
For activity change, negative = inhibition, CCSC1=C(C#N)C(c2ccc(C)o2)CC(=O)N1 (stereo unspecified) shows inactive: 24%

In the list so far, three contain fluorine.
Compound	Potency	activity change, negative = inhibition
O=C(COC(=O)c1c(F)cccc1Cl)NC(=O)Nc1ccc2c(c1)OCCO2	inconclusive: 10 µM [activator, partial curve]	
CSCCC(NS(=O)(=O)c1ccc2c(c1)OCCO2)C(=O)N(C)Cc1ccccc1F (stereo unspecified)	active: 16.4 µM	
CC1Oc2ccccc2N(CC(=O)Nc2ccccc2F)C1=O (stereo unspecified)	inconclusive: 0.517 µM [inhibitor, partial curve, poor fit]	

Additional results follow.

Compound	Potency	activity change, negative = inhibition
Cc1ccc(C23CC4CC(CC(C(=O)N(C)C)(C4)C2)C3)cc1		inactive: -0.019%
Cc1ccc(S(=O)(=O)CCC(=O)N2CCN(c3ccc(Cl)cc3)CC2)cc1	inconclusive: 20.6 µM [inhibitor, partial curve, poor fit]	
O=[N+]([O-])c1ccc(Oc2ccc(Oc3ccc(C(F)(F)F)cn3)cc2)nc1	inconclusive: 29.1 µM [inhibitor, single point]	
COC(=O)[C@@H]1CC[C@H](C)[C@@H](c2ccc(C)cc2)N1C(=O)c1ccc(/C=N/OCC[C@@H]2C=C[C@H](OC(C)=O)[C@@H](COC(C)=O)O2)cc1	inconclusive: 18.4 µM [inhibitor, partial curve, poor fit]	
CCOC(=O)c1sc(NC(=O)c2ccncc2)nc1C	inconclusive: 29.1 µM [activator, single point]	
CCN(CC)S(=O)(=O)c1ccc2oc(Nc3ccc(OC)cc3OC)nc2c1		inactive: -22.7%
Cc1cc(C)n(C(=O)CN(C)S(=O)(=O)c2ccc([N+](=O)[O-])cc2)n1		inactive: 8.54%
Cc1c(C(=O)N/N=C/c2cccs2)nnn1-c1nonc1N		inactive: 19%
Cc1ccc(S(=O)(=O)Nc2cnc3ccccc3c2)cc1		inactive: -11.1%
Cc1c(NS(=O)(=O)c2cc(C(=O)NCc3cccnc3)ccc2Cl)c(=O)n(-c2ccccc2)n1C		inactive: -3.25%
Cc1ccc(/C=C2\NC(=S)NC2=O)cc1[N+](=O)[O-]	inconclusive: 10.3 µM [activator, partial curve, poor fit]	
COc1ccc(/C=N/Nc2nnc(Cc3ccccc3)c(=O)[nH]2)cc1OC	inconclusive: 14.6 µM [activator, partial curve]	
C=CCN(c1ccccc1Cl)S(=O)(=O)c1cccc(C(=O)NCCc2ccc(OC)cc2)c1	inconclusive: 29.1 µM [inhibitor, single point]	
CCN(CC)C(=O)COc1ccc2oc(-c3ccco3)cc(=O)c2c1	inconclusive: 29.1 µM [activator, single point]	
CC(=O)OC[C@]12CC[C@H]3[C@@](C)(CC[C@H]4C(C)(C)CCC[C@]34C)[C@@H]1C[C@H](C1=CC(=O)O[C@H]1OC(C)=O)O2	inconclusive: 29.1 µM [inhibitor, single point]	
Cc1sc2nc(CN3CCCCC3)nc(N3CCN(C(=O)c4ccco4)CC3)c2c1C	inconclusive: 20.6 µM [inhibitor, partial curve, poor fit]	
Cc1[nH]n(-c2ccccc2)c(=O)c1/C=N/N1C(=O)c2cccc3cccc(c23)C1=O	inconclusive: 29.1 µM [activator, single point]	
COc1cc(/C=C2\CC/C(=C\c3ccc(OCCO)c(OC)c3)C2=O)ccc1OCCO	inconclusive: 29.1 µM [inhibitor, single point]	
O=C(N/N=C/c1ccc(N2CCOCC2)cc1)c1ccccn1	inconclusive: 13 µM [activator, partial curve]	
Cc1ccc(S(=O)(=O)CNC(=S)c2ccc3ccccc3c2)cc1		inactive: 8.69%
CC1=CC(C)[C@H](/C=N/n2c(=O)[nH]c3c([nH]c4ccc(C)cc43)c2=O)C(C)C1 (stereo partly specified)		inactive: -27.6%
CC(C(=O)Nc1cccc(S(=O)(=O)N2CCOCC2)c1)N1CCN(c2ccc(F)cc2)CC1 (stereo unspecified)	inconclusive: 8.2 µM [inhibitor, partial curve]	
CCOc1ccc(NC(=O)Nc2ccccc2SC)cc1	inconclusive: 9.2 µM [activator, partial curve]	
Nc1ccccc1O		inactive: 6.82%

Compound	Potency	activity change, negative = inhibition
CC(C)CC(=O)Nc1cccc(C(C)O)c1 (stereo unspecified)		inactive: 5.33%
COc1ccc(C(=O)NC2CCCc3ccccc32)cc1OC1CCN(C(C)=O)CC1 (stereo unspecified)		inactive: -13.4%
CC(C)CN(C(=O)COC(=O)CCCc1c[nH]c2ccccc12)c1c(N)n(Cc2ccccc2)c(=O)[nH]c1=O	inconclusive: 23.1 µM [inhibitor, partial curve]	
Cc1cccc(C)c1NC(=S)NC(C)(C)CO		inactive: 1.35%
Clc1ccc(C(c2nnnn2C2CCCCC2)N(Cc2cccnc2)Cc2ccco2)cc1 (stereo unspecified)	inconclusive: 29.1 µM [inhibitor, single point]	
O=C(CC1SC(N2CCCCC2)=NC1=O)Nc1ccc(C(=O)NCc2ccccc2)cc1 (stereo unspecified)		inactive: 10.9%
COc1ccc(-c2cc3nc[nH]c(=O)c3s2)cc1	inconclusive: 4.11 µM [activator, full curve]	
CCOc1ccc(/C=N/NC(=O)c2c(-c3ccccc3)noc2C)cc1	inconclusive: 9.2 µM [inhibitor, partial curve]	
COc1ccc(Cc2nnc(NC(=O)c3ccc(OC)c(OC)c3)s2)cc1		inactive: -17.7%
Cc1nc(NC(=S)NC(=O)c2cccs2)ccc1Br	inconclusive: 20.6 µM [activator, partial curve]	
CCCCOc1ccc(-c2nnc(N)s2)cc1	inconclusive: 14.6 µM [activator, partial curve]	
CN(C)CCN(C)Cc1ccc2c(c1)Cc1ccccc1-2	inconclusive: 13 µM [activator, partial curve]	
CCS(=O)(=O)Nc1cccc(C2=NN(S(=O)(=O)c3ccc(C)cc3)C(c3ccco3)C2)c1 (stereo unspecified)	inconclusive: 14.6 µM [inhibitor, single point]	
CCCS(=O)(=O)N1CCc2ccc(NC(=O)c3ccccc3Cl)cc2C1	inconclusive: 6.31 µM [activator, single point]	
O=C(c1oc2ccccc2c1CSCc1ccccc1)N1CCN(c2ncccn2)CC1	inconclusive: 4.61 µM [inhibitor, single point]	
COCCNC(=O)/C(C#N)=C/c1ccc(C)o1		inactive: 3.98%
Nc1nonc1-n1nnc(C(=O)N/N=C/c2cc(Br)ccc2O)c1CSC1=NCCS1	inconclusive: 3.66 µM [inhibitor, single point]	
O=c1ccc2ccc(OCCOc3cccc(Cl)c3)cc2o1	inconclusive: 23.1 µM [activator, single point]	
COc1ccccc1-c1ccc(SCc2ccc([N+](=O)[O-])cc2)nn1	inconclusive: 29.1 µM [inhibitor, single point]	
Cc1cnc(C(=O)OCC(=O)NCc2ccccc2)cn1		inactive: 18.8%
CCOC(=O)c1cc(Br)c(=O)n2ccccc12	inconclusive: 32.6 µM [activator, partial curve, poor fit]	
CCc1ccc(Nc2nnc(SCC(=O)Nc3sccc3C(N)=O)s2)cc1	inconclusive: 29.1 µM [inhibitor, single point]	
CCOC(=O)N1CCC(N2Cc3cccc(C(=O)Nc4cccc(F)c4)c3C2=O)CC1	inconclusive: 16.4 µM [inhibitor, single point]	
